Laboratory results reported in PubChem BioAssay AID2551 (National Center for Advancing Translational Sciences (NCATS), 2010).
The campaign covered roughly 310,000 compounds. About 17,000 (5.5%) were called active. The inconclusive results got no clear call from the source; some entries with a clear call stand among them for comparison. The call rests on the fitted dose curve; in most records, active means well fitted inhibition curve with a large enough effect; inconclusive means small, poorly fitted or top-dose-only effect, or effect the other way; inactive means no such curve, though single readings can be large or run the other way. Potencies beside an inconclusive call are fits to weak or partial responses and may not hold up.

By UniProt entry, the sequences of proteins in these tests, tags left out. Where a name states a change or a piece, a line headed by the entry shows the natural chain unless it says otherwise.
UniProt P51450: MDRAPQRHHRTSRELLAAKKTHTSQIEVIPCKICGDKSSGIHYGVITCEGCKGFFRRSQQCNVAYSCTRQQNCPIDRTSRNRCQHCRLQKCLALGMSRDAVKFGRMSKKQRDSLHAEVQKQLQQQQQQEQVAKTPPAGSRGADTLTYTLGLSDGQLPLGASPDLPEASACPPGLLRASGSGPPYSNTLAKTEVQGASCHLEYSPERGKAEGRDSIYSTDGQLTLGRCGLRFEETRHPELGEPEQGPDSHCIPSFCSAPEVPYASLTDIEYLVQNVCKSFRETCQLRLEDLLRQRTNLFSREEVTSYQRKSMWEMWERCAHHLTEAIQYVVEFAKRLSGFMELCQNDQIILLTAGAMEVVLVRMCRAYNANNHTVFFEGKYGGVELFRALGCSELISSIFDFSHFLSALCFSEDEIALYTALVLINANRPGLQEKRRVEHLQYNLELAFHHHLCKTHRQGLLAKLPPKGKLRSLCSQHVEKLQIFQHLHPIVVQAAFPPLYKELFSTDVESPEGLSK

These compounds were tested against Nuclear receptor ROR-gamma (Mus musculus) (UniProt P51450) (assay: qHTS for inhibitors of ROR gamma transcriptional activity). Conditions: Drosophila S2 Gal4-RORgamma UAS-luciferase reporter, 20 h; activity change, negative = inhibition: at 53.6 µM (top of the series).
Method in brief: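 Read-out: Photinus luciferase luminescence; inhibitors lower reporter signal. Insect Schneider cells with Gal4-ROR gamma fusion under metallothionein promoter, UAS reporter; 700 uM final copper sulfate induction, 20 hr, ambient temperature.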
Further: nearly all actives have a fitted effect of over 60% in size.
On the % scale 0 is the no-effect control and ±100 the full control effect; potency means the concentration at half of the fitted maximal effect.

| SMILES | Potency | activity change, negative = inhibition |
| --- | --- | --- |
| N#Cc1ccccc1NC(=O)CSc1nnc(-c2ccccc2O)n1-c1ccccc1 | active: 12.6 µM |  |
| Cc1ccc(-c2nn3c(C)nnc3s2)cc1NCc1c(F)cccc1Cl | inconclusive: 0.316 µM [inhibitor, partial curve] |  |
| Oc1ccc(CN2CCCCC2)nc1-c1ccccc1 |  | inactive: 5.27% |
| Cc1ccn2cc(C(=O)Nc3ccc4c(c3)OCCO4)nc2c1 | active: 1.26 µM |  |
| CC(Cc1cccs1)NC(=O)c1cccc(Cl)c1 (configuration not stated) | inconclusive: 31.6 µM [activator, single point] |  |
| CCOc1ccc(CNC(=O)CCS(=O)(=O)Cc2cccc(Cl)c2)cc1OC |  | inactive: 14.6% |
| CCCCCCCCc1nc(=S)[nH][nH]1 | active: 10 µM |  |
| CS(=O)(=O)Nc1ccc(C(=O)Nc2ccccc2-c2ccccc2)cc1 | inconclusive: 0.282 µM [activator, single point] |  |
| S=C(NCc1ccccc1)N/N=C/c1cccs1 | active: 0.398 µM |  |
| COc1ccc(C2=NOC(C(=O)N(C)Cc3ccccc3)C2)cc1 (configuration not stated) | inconclusive: 14.1 µM [activator, single point] |  |
| O=C(Nc1ccccc1N1CCCCC1)c1cnccn1 | inconclusive: 12.6 µM [inhibitor, single point] |  |
| CCOC(=O)N1CCc2c(sc(NC(=O)CN3CCOCC3)c2C(=O)Nc2ccccc2)C1 |  | inactive: 29.5% |
| C=CCNC(=S)NNC(=O)COc1ccc(Br)cc1 | active: 5.01 µM |  |
| CCCc1c(C(=O)OCC)sc(N)c1C#N |  | inactive: -7.23% |
| CCOC(=O)C1CCN(CC(O)COc2ccc(C(C)(C)CC)cc2)CC1 (configuration not stated) |  | inactive: 4.09% [at 10 µM] |
| CCCC(=O)n1nc(-c2ccc(Cl)cc2)nc1SC | inconclusive: 7.08 µM [activator, full curve, poor fit] |  |
| CCC(CC)c1nnc(NC(=O)Cc2cccs2)s1 | inconclusive: 20 µM [inhibitor, single point] |  |
| COc1cccc(CNC(=O)CCC2CCCN(C(=O)c3csc(C(C)C)n3)C2)c1 (configuration not stated) | inconclusive: 4.47 µM [activator, full curve, poor fit] |  |
| CCOC(=O)c1cc(C)n(Cc2cccc(OC)c2OC)c1C | inconclusive: 6.31 µM [inhibitor, single point] |  |
| Cc1ccc(NC(=O)Cc2ccccc2Cl)cc1S(=O)(=O)N(C)C | inconclusive: 15.8 µM [activator, single point] |  |
| Cc1c(C(=O)N2CC(C)OC(C)C2)sc2nc(-c3ccc(F)cc3)cn12 (configuration not stated) | inconclusive: 35.5 µM [activator, single point] |  |
| CCOC(=O)c1c(NC(=O)c2ccn(CC)n2)sc2c1CCCC2 |  | inactive: 19.9% [at 0.365 µM] |
